Source: PubChem BioAssay AID651744 (Broad Institute, 2012)
In all, about 5,600 compounds went through this assay and about 3,100 (55%) were called active. So high a share suggests a set chosen from earlier hits. This list was built around the results that the source calls inconclusive (neither active nor inactive); the mix of calls is not that of the screen.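 Rule for the calls: active = mean loss of cell viability signal at or above a set limit, and enough replicates individually reaching it; inconclusive = meets only the mean limit or only the replicate share; inactive = meets neither condition.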

assay: NIH/3T3 fibroblast cytotoxicity, confirmation, cytotoxicity control, cell-based, cherry-pick, single point, set 2 (AID 651744); conditions: NIH/3T3 viability, CellTiter-Glo ATP luminescence, 90 h; at 24.9 µM; stronger effect = higher value;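 note: 0% = median of neutral control wells and 100% = median of positive control wells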

| SMILES | inhibition |
| --- | --- |
| Cc1ccccc1-c1ccc([C@H]2[C@H]3CN(S(=O)(=O)c4cn(C)cn4)CCCCN3[C@H]2CO)cc1 | inconclusive: 34.9% |
| C/C=C/c1ccc([C@H]2[C@@H](C#N)N(C(=O)Cc3ccccn3)[C@@H]2CO)cc1 | inconclusive: 29% |
| COCC(=O)N(C)C[C@H]1[C@H](c2ccc(-c3cccnc3)cc2)[C@H](CO)N1C(C)=O | inactive: -12.5% |
| C[C@@H]1CN([C@H](C)CO)C(=O)c2cc(NC(=O)Nc3cccc4ccccc34)ccc2O[C@@H]1CN(C)Cc1ccc(Oc2ccccc2)cc1 | inconclusive: 21.3% |
| CCC(=O)N1CC[C@@H]2[C@H](CO)Nc3ccc(-c4ccc(C(=O)N(C)C)cc4)cc3[C@@H]21 | inactive: -2.29% |
| COc1ccc(CN(C)C[C@H]2OCCCC[C@H](C)Oc3ccc(NS(=O)(=O)c4ccccc4)cc3C(=O)N([C@H](C)CO)C[C@H]2C)cc1 | inconclusive: 19.3% |
| COc1cccc(-c2ccc3n(c2=O)C[C@@H]2[C@@H](CO)[C@H](C(=O)N(C)C)N(CC4CC4)[C@H]32)c1 | inconclusive: 36.5% |
| C[C@H]1CCCCO[C@H](CN(C)C(=O)Nc2cccc3ccccc23)[C@@H](C)CN([C@@H](C)CO)C(=O)c2cc(NC(=O)NC3CCCCC3)ccc2O1 | inactive: 6.44% |
| COc1ccc(CN(C)C[C@H]2OCCCC[C@H](C)Oc3ccc(NC(=O)Nc4cccc5ccccc45)cc3C(=O)N([C@@H](C)CO)C[C@H]2C)cc1 | inconclusive: 22.2% |
| O=C(C[C@@H]1C[C@H]2c3cc(NS(=O)(=O)c4ccccc4)ccc3O[C@H]2[C@H](CO)O1)N1CCCCC1 | active: 39.5% |
| O=C(Nc1ccccc1F)N1CCCCN2[C@H](CO)[C@@H](c3ccc(C4=CCCCC4)cc3)[C@H]2C1 | active: 107% |
| C[C@H](CO)N1C[C@H](C)[C@@H](CN(C)Cc2ccc(C(=O)Nc3ccccc3N)cc2)OCc2cnnn2CCCC1=O | inconclusive: 22.6% |
| C[C@@H]1CN([C@H](C)CO)C(=O)c2cc(C#Cc3ccccc3F)cnc2O[C@@H]1CN(C)C | inconclusive: 23.8% |
| C[C@H](CO)N1C[C@H](C)[C@@H](CN(C)C(=O)CN2CCOCC2)Oc2ncc(-c3cncnc3)cc2C1=O | inactive: -4.2% |
| Cc1ccc(S(=O)(=O)Nc2ccc3c(c2)C(=O)N([C@@H](C)CO)C[C@@H](C)[C@H](CN(C)S(=O)(=O)c2ccc(F)cc2)OCCCC[C@@H](C)O3)cc1 | inactive: 6.41% |
| CC(C)CC#Cc1ccc2c(c1)O[C@H](CN(C)C(=O)C1CCC1)[C@@H](C)CN([C@@H](C)CO)S2(=O)=O | active: 104% |

Two of the compounds above, tab-delimited:
SMILES	inhibition
COc1ccc(CN(C)C[C@H]2OCCCC[C@H](C)Oc3ccc(NC(=O)Nc4cccc5ccccc45)cc3C(=O)N([C@@H](C)CO)C[C@H]2C)cc1	inconclusive: 22.2%
O=C(C[C@@H]1C[C@H]2c3cc(NS(=O)(=O)c4ccccc4)ccc3O[C@H]2[C@H](CO)O1)N1CCCCC1	active: 39.5%
